From article PMC13083928, “ALS mutations disrupt self-association between the ubiquilin STI1 hydrophobic groove and internal placeholder sequences” (The EMBO Journal, 2026)
Results are given in words; binding and its absence hold for the method and conditions named. In cells and extracts the contact can be indirect. Some entries that bind do so weakly or less than the wild type. Tags and fused reporters may be left off the sequences shown.

Sequences of proteins named here, by UniProt entry; tags and fusion partners are left off. A change or cut given only in a name is not applied to a line headed by its entry.
UniProt Q9UHD9: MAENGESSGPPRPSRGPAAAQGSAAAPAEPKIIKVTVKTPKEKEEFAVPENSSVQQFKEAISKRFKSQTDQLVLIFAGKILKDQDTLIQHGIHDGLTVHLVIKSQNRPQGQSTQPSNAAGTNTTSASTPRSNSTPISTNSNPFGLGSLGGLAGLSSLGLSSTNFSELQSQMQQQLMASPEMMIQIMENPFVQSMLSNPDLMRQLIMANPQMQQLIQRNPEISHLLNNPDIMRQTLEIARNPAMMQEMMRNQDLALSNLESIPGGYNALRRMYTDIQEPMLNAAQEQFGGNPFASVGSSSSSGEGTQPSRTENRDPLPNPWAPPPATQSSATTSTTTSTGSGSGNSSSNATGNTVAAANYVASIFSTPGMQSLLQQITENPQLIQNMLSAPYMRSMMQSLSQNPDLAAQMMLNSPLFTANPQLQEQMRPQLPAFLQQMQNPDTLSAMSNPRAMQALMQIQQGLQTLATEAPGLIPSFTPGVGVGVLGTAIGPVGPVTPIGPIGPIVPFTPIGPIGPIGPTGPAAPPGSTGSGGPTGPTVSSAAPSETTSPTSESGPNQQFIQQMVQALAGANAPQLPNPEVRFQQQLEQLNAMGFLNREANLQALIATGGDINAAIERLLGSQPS

Molecular target: T1, 3xFLAG-Omp25 (pUdOM1.0) (UniProt P57105)
T1 sequence: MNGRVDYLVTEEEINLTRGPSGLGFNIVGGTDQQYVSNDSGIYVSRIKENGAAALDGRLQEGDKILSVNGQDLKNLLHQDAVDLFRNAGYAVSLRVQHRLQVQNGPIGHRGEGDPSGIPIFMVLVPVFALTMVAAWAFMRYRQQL
Assay: co-IP + cross-linking; HEK cells co-transfected with HA-tagged UBQLN2 variants and FLAG-tagged Omp25 (CMV promoter); 1 mM DSP for 30 min, lysis in 1% NP-40, anti-FLAG immunoprecipitation, elution with 3xFLAG peptide, western blot

**Q.** Which binding does the source give for “3xHA-UBQLN2 P189T (pUdOM1.0) (from UniProt Q9UHD9 1-624)” here?
**A.** binds
